Test results: paper PMC3485056
Results are given in words; binding and its absence hold for the method and conditions named. In cells and extracts the contact can be indirect. Some binding calls cover weakened binding; strength is not graded here. Where a sequence is shown, tags or fusion partners need not be part of it.

The chains behind the UniProt entries cited, without tags or fusion partners. Where a name states a change or a piece, a line headed by the entry shows the natural chain unless it says otherwise. Residues count along the entry.
in vitro translated hnRNP A1 deletion protein 1–234 (P09651, residues 1-234): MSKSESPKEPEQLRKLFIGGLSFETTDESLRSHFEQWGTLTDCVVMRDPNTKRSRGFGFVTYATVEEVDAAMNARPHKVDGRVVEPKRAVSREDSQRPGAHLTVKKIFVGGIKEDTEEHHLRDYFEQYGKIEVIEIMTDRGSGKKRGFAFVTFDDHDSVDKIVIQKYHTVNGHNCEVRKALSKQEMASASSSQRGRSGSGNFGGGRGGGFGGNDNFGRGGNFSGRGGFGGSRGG
in vitro translated hnRNP A1 deletion protein 1–194 (P09651, residues 1-194): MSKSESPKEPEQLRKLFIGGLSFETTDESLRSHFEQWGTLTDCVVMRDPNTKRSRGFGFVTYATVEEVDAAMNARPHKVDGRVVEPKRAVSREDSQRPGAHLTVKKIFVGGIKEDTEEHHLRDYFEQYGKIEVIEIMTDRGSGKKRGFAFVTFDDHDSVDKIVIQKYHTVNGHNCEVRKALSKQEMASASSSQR

Biological target: T1, GST-Tap (1–619) (UniProt Q9UBU9)
T1 sequence: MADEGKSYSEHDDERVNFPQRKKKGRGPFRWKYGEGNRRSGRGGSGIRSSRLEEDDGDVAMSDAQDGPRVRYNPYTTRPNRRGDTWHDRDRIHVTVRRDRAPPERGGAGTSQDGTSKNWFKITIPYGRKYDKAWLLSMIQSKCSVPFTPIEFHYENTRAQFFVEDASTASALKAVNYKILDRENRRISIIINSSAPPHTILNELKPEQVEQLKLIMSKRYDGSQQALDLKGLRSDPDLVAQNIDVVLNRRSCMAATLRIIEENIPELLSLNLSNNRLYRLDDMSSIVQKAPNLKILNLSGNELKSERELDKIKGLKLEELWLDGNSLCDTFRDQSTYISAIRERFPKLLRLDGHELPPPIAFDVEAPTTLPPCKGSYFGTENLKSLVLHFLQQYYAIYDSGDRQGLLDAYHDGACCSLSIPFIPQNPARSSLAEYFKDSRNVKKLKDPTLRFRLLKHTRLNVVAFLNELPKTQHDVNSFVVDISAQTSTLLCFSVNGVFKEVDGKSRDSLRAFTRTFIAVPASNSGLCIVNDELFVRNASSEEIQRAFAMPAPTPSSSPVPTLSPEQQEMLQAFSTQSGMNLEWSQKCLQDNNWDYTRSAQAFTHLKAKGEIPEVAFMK
Test: pull-down; 50 µl E. coli lysate with GST-fusion protein mixed with 50 µl glutathione agarose bead slurry and 2 µl [35S]-labelled in vitro translated protein; 4°C, 1 h; lysis buffer 20 mM Tris-HCl pH 8.0/200 mM NaCl/1 mM EDTA/0.5% NP40; 4 washes; SDS-PAGE and Phosphorimager

Substance | binding
in vitro translated hnRNP A1 deletion protein 1–194 (from UniProt P09651-2 1-194) (domain or fragment) | no binding
in vitro translated hnRNP A1 deletion protein 1–234 (from UniProt P09651-2 1-234) (domain or fragment) | binds
